Measurements taken from PMC10381965.
Results are given in words; binding and its absence hold for the method and conditions named. Some binding calls cover weakened binding; strength is not graded here.

Biological target: CENP-I (CTF3) (S. cerevisiae) (UniProt Q12748)
Assay: cryo-EM structure; IK^C0N3: CBF1:CCAN^ΔC:C0N3-CENP-A^Nuc:CBF3^Core:scFv, components at 2 μM, scFv 4 μM, BS3 cross-linked; multibody refinement 3.7 to 3.8 Å; both purified

binding: binds
Substance: CBF3^Core complex (Cep3, Ctf13, and Skp1) (from UniProt P40969 1-608; P35203 1-478; P52286 1-194)
